These are yes or no findings as the source states them, for the method shown. Binding seen in cells or lysates may run through a third protein. Some binding calls cover weakened binding; strength is not graded here.
Key:
Assay in all cases: co-IP; co-immunoprecipitation (Fig. 1O); cells, bait and antibodies are not told in the shown text
[1] = target: Insulin-like growth factor 1 receptor (UniProt P08069)
[2] = target: Neural precursor cell expressed developmentally downregulated protein 4-1 (UniProt P46934)
Insulin receptor = Insulin receptor (UniProt P06213)

By UniProt entry, the sequences of proteins in these tests, tags left out. Residues count along the entry.
UniProt P08069, residues 31-1367: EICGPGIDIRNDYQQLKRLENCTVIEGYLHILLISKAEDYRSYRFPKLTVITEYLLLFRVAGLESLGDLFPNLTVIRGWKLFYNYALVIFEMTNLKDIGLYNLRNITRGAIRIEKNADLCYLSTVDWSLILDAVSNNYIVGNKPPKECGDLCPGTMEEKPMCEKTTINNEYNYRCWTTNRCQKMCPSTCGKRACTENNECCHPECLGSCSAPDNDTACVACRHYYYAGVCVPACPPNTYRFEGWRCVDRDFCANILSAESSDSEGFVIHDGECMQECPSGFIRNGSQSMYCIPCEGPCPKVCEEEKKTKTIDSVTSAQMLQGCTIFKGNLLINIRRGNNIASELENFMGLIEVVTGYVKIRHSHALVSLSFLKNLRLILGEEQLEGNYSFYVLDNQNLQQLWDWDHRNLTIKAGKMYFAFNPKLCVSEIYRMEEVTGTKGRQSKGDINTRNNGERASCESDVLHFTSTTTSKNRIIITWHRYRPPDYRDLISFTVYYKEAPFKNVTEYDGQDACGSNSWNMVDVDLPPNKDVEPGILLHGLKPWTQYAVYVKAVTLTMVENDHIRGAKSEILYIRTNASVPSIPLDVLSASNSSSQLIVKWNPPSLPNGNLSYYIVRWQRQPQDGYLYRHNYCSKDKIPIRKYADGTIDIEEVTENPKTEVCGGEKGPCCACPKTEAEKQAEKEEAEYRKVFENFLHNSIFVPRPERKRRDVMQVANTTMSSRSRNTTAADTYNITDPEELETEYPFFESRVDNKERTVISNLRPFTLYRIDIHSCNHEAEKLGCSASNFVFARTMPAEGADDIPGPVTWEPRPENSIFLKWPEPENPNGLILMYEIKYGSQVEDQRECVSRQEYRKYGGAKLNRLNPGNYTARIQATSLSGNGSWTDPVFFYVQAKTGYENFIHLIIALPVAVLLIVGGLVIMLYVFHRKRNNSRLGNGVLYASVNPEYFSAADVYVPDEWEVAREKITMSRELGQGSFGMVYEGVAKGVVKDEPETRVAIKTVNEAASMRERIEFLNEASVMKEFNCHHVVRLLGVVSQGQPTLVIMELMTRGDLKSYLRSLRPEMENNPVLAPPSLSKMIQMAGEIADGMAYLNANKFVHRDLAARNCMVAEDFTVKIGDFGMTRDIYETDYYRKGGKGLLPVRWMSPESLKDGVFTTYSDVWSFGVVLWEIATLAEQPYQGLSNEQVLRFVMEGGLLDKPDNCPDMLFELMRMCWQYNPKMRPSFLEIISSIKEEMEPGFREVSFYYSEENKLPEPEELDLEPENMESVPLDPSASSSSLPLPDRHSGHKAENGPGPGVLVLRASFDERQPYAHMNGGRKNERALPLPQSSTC
UniProt P46934: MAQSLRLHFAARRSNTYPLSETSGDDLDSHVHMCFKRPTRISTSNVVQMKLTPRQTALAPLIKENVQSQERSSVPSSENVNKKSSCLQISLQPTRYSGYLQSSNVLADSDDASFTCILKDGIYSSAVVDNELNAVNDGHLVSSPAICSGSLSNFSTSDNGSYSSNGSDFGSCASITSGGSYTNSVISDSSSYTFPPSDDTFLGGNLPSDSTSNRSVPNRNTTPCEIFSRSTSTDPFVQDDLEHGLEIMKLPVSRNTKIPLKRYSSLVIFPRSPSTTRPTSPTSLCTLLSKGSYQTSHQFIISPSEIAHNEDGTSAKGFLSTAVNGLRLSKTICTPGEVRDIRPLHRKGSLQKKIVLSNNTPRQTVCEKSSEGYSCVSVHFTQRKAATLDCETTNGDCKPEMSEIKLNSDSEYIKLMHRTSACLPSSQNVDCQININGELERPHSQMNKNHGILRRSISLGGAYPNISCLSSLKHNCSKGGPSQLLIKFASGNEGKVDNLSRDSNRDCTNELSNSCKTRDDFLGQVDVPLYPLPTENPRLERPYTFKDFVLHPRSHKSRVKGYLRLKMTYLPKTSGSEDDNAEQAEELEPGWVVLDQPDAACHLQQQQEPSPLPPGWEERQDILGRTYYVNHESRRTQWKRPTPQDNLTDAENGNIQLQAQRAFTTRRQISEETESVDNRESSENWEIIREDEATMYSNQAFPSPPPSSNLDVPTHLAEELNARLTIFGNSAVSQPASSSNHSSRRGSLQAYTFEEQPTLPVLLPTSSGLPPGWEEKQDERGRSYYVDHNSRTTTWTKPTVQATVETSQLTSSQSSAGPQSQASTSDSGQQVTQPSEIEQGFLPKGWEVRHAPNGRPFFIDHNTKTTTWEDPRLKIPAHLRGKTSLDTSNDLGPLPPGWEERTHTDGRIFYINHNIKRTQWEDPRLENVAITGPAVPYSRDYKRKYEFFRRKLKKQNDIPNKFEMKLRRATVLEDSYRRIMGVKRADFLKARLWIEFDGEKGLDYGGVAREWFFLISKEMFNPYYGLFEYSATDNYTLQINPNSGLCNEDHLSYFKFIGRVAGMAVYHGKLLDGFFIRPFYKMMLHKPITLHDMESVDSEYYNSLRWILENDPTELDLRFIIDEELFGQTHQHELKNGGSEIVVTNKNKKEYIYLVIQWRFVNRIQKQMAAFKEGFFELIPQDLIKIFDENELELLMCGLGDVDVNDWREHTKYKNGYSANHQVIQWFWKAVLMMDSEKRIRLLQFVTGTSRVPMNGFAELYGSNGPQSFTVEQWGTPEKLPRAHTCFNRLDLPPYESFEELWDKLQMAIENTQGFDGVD
UniProt P06213, residues 28-1382: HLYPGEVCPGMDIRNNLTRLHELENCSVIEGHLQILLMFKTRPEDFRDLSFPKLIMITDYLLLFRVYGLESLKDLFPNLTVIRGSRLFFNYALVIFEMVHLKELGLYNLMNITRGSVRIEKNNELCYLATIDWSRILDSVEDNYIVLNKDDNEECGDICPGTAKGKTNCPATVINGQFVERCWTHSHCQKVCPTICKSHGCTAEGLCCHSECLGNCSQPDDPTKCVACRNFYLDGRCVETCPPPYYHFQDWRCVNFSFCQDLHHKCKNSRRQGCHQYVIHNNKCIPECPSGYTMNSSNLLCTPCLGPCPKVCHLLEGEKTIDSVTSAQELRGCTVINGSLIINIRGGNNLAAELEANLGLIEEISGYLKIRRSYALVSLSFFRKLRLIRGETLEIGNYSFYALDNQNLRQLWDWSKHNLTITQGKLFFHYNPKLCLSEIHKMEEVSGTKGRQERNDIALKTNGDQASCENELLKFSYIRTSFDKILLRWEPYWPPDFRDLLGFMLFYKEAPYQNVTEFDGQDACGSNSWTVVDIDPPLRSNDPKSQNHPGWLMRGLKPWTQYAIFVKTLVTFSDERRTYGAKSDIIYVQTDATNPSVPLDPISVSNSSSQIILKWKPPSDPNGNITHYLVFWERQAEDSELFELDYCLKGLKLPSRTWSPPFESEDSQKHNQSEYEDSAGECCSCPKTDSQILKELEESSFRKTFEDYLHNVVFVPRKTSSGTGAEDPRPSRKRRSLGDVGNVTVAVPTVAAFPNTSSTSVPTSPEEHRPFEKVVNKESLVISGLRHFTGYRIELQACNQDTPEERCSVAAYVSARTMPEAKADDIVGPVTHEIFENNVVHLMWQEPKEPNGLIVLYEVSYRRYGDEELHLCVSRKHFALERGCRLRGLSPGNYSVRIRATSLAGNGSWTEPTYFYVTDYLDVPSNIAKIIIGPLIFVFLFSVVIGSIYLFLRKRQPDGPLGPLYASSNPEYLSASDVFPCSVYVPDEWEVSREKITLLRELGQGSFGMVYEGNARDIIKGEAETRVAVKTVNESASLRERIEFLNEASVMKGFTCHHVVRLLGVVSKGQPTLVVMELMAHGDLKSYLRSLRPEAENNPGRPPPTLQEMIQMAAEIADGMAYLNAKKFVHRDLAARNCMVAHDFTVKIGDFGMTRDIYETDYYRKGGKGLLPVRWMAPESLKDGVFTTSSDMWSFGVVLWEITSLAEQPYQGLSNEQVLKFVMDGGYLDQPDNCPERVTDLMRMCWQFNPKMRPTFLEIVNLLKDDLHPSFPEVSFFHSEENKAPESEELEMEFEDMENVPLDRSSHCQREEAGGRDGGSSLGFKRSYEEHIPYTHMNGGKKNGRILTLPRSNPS

binding [1]: binds | binding [2]: binds | binding (Insulin receptor): no binding
B1: Transcriptional regulator interacting with the PHD-bromodomain 1 (protein, UniProt Q9UHV2 1-236)
chain: MLSKGLKRKREEEEEKEPLAVDSWWLDPGHTAVAQAPPAVASSSLFDLSVLKLHHSLQQSEPDLRHLVLVVNTLRRIQASMAPAAALPPVPSPPAAPSVADNLLASSDAALSASMASLLEDLSHIEGLSQAPQPLADEGPPGRSIGGAAPSLGALDLLGPATGCLLDDGLEGLFEDIDTSMYDNELWAPASEGLKPGPEDGPGKEEAPELDEAELDYLMDVLVGTQALERPPGPGR

Source: article PMC9204904
